Reference: the supplement of paper PMC8728848
This is one part of the list.

Key:
Assay in all cases: glycan array binding signal (z-score within array); higher = stronger binding
Conditions in all cases: glycan notation: IUPAC condensed, linker removed
[1] = biological target: Neu5Ac(a2-3)Gal(b1-4)GlcNAc(b1-6)GalNAc
In short: (§1)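 Arrays were curated from the Consortium for Functional Glycomics database, 3228 in total, and kept only where the protein sequence was available. Binding is expressed as a within-array Z-score. This score was averaged across arrays of the same protein sequence at different concentrations or buffers and across linkers, and negative values can be read as non-binding.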

[2] = biological target: Neu5Ac(a2-3)Gal(b1-4)GlcNAc(b1-6)[Gal(b1-3)]GalNAc
In short: as §1

[3] = biological target: Neu5Ac(a2-3)Gal(b1-4)GlcNAc(b1-6)[Neu5Ac(a2-3)Gal(b1-3)]GalNAc
In short: as §1

[4] = biological target: Neu5Ac(a2-3)Gal(b1-4)GlcNAc6S
In short: as §1

[5] = biological target: Neu5Ac(a2-3)Gal(b1-4)[Fuc(a1-3)]GlcNAc
In short: as §1

[6] = biological target: Neu5Ac(a2-3)Gal(b1-4)[Fuc(a1-3)]GlcNAc(b1-2)Man
In short: as §1

[7] = biological target: Neu5Ac(a2-3)Gal(b1-4)[Fuc(a1-3)]GlcNAc(b1-3)Gal
In short: as §1

[8] = biological target: Neu5Ac(a2-3)Gal(b1-4)[Fuc(a1-3)]GlcNAc(b1-3)Gal(b1-4)GlcNAc
In short: as §1

[9] = biological target: Neu5Ac(a2-3)Gal(b1-4)[Fuc(a1-3)]GlcNAc(b1-3)Gal(b1-4)[Fuc(a1-3)]GlcNAc(b1-3)Gal(b1-4)[Fuc(a1-3)]GlcNAc
In short: as §1

[10] = biological target: Neu5Ac(a2-3)Gal(b1-4)[Fuc(a1-3)]GlcNAc(b1-3)GalNAc
In short: as §1

[11] = biological target: Neu5Ac(a2-3)Gal(b1-4)[Fuc(a1-3)]GlcNAc(b1-6)[Gal(b1-3)]GalNAc
In short: as §1

[12] = biological target: Neu5Ac(a2-3)Gal(b1-4)[Fuc(a1-3)]GlcNAc(b1-6)[Neu5Ac(a2-3)Gal(b1-3)]GalNAc
In short: as §1

[13] = biological target: Neu5Ac(a2-3)Gal(b1-4)[Fuc(a1-3)]GlcNAc6S
In short: as §1

[14] = biological target: Neu5Ac(a2-3)Gal6S(b1-4)GlcNAc
In short: as §1

[15] = biological target: Neu5Ac(a2-3)Gal6S(b1-4)[Fuc(a1-3)]GlcNAc
In short: as §1

[16] = biological target: Neu5Ac(a2-3)GalNAc
In short: as §1

[17] = biological target: Neu5Ac(a2-3)GalNAc(b1-4)GlcNAc
In short: as §1

[18] = biological target: Neu5Ac(a2-3)[GalNAc(b1-4)]Gal(b1-4)Glc
In short: as §1

[19] = biological target: Neu5Ac(a2-3)[GalNAc(b1-4)]Gal(b1-4)GlcNAc
In short: as §1

[20] = biological target: Neu5Ac(a2-3)[GalNAc(b1-4)]Gal(b1-4)GlcNAc(b1-3)GalNAc
In short: as §1

[21] = biological target: Neu5Ac(a2-3)[Neu5Ac(a2-6)]GalNAc
In short: as §1

[22] = biological target: Neu5Ac(a2-6)Gal
In short: as §1

[23] = biological target: Neu5Ac(a2-6)Gal(b1-3)GlcNAc(b1-3)[Gal(b1-4)GlcNAc(b1-6)]Gal(b1-4)Glc
In short: as §1

[24] = biological target: Neu5Ac(a2-6)Gal(b1-4)Glc
In short: as §1

[25] = biological target: Neu5Ac(a2-6)Gal(b1-4)GlcNAc
In short: as §1

[26] = biological target: Neu5Ac(a2-6)Gal(b1-4)GlcNAc(b1-2)Man
In short: as §1

[27] = biological target: Neu5Ac(a2-6)Gal(b1-4)GlcNAc(b1-2)Man(a1-3)Man(b1-4)GlcNAc(b1-4)GlcNAc
In short: as §1

[28] = biological target: Neu5Ac(a2-6)Gal(b1-4)GlcNAc(b1-2)Man(a1-3)[Gal(b1-4)GlcNAc(b1-2)Man(a1-6)]Man(b1-4)GlcNAc(b1-4)GlcNAc
In short: as §1

[29] = biological target: Neu5Ac(a2-6)Gal(b1-4)GlcNAc(b1-2)Man(a1-3)[GlcNAc(b1-2)Man(a1-6)]Man(b1-4)GlcNAc(b1-4)GlcNAc
In short: as §1

[30] = biological target: Neu5Ac(a2-6)Gal(b1-4)GlcNAc(b1-2)Man(a1-3)[GlcNAc(b1-4)][Neu5Ac(a2-6)Gal(b1-4)GlcNAc(b1-2)Man(a1-6)]Man(b1-4)GlcNAc(b1-4)GlcNAc
In short: as §1

B1: PX14343F-bfa-562-20-562 (Bacteroides fragilis) (protein)
chain: CDDFLDSFPQDTVTNENFWKSKEDADKVLVDIYASLLPKDAIFFDEAMSDNAYLVWDWWGGAQQVANGSYTTSGEIPTNRWNGSYEVIRKCWFLLEGIEKIEDISEQDKNKIIGETYFMLAYNYYVLTSYFGDVPLVTKTLAIPESKQLVRTPKAEVVDYAINKLKEAAVMLEGLSQEKGRVTADACRFLIARMYLYNGDYSNVLETVKLLEGKYQLYREGDTPYEDLFSGVAENSCEVILSVVCDKRVGEIYTSHGGNGIMLLKGITGEDPYRGVTPSGSLVDAYPMADGRLIHEAGSSYDPKKPYEGRDPRFYQSIVYPTGQIKYLDVETGTVKERLYDPEDPTTVPEHQYNYSQPSATGYMWNKYIDYSVYAMNSVWDCTNDIIVFRYADVLLMKAEALLQTKGESAKEEVCNLIDQLRDRCSCGRVHRENYNSKDELMELLKNERRIELANEGLRYMDLIRWKDAEKNTIVTGVGLTGQMYGAYMRKDGVGKDDKTVDVDNTPRRYIETRYFNASKGYLFPIPQKERDLNPNLTQNPNW
[1]
  glycan array binding signal (z-score): -0.639
[2]
  glycan array binding signal (z-score): -0.723
[3]
  glycan array binding signal (z-score): 0.33
[4]
  glycan array binding signal (z-score): -0.149
[5]
  glycan array binding signal (z-score): -0.377
[6]
  glycan array binding signal (z-score): -0.79
[7]
  glycan array binding signal (z-score): -0.528
[8]
  glycan array binding signal (z-score): 0.262
[9]
  glycan array binding signal (z-score): -0.664
[10]
  glycan array binding signal (z-score): 0.296
[11]
  glycan array binding signal (z-score): 0.551
[12]
  glycan array binding signal (z-score): -0.025
[13]
  glycan array binding signal (z-score): -0.045
[14]
  glycan array binding signal (z-score): 1.17
[15]
  glycan array binding signal (z-score): -0.633
[16]
  glycan array binding signal (z-score): 0.272
[17]
  glycan array binding signal (z-score): -0.105
[18]
  glycan array binding signal (z-score): -0.734
[19]
  glycan array binding signal (z-score): -0.587
[20]
  glycan array binding signal (z-score): 0.078
[21]
  glycan array binding signal (z-score): 0.574
[22]
  glycan array binding signal (z-score): 0.129
[23]
  glycan array binding signal (z-score): -0.366
[24]
  glycan array binding signal (z-score): -0.402
[25]
  glycan array binding signal (z-score): -0.468
[26]
  glycan array binding signal (z-score): 1.04
[27]
  glycan array binding signal (z-score): -0.203
[28]
  glycan array binding signal (z-score): -0.29
[29]
  glycan array binding signal (z-score): 0.095
[30]
  glycan array binding signal (z-score): -0.203
